Most values lie at the floor of the assay. Slopes are relative: functional sequences can read slightly below zero.
System: Saccharomyces cerevisiae PS128 hsf1 delta, HSF1(1-493) fusion
Assay: growth estimate (transactivation domain function in HSF1 fusion, heat-shock survival) (a.u. (slope of normalised read count over time)); higher = stronger growth at 37°C, i.e. more transactivation activity
Settings: library: random library

Row | Substance | growth estimate
1 | RFPSIVFGGRVDVVITLDVE | < -0.25
2 | VML | < -0.25
3 | YYLTECQELDPTLWIPKCGP | 0.788
4 | KLRCFG | < -0.25
5 | QITKPTCQYNSSAHGWSAT | < -0.25
6 | RDGSDQASIRPPQFVVPHQS | < -0.25
7 | RDAGEAHGRATPAFTIC | < -0.25
8 | SQTVVDIFVGQRSK | < -0.25
9 | AGMKPGSSGNAV | < -0.25
10 | FSLGNDTWSDLHWSFLT | -0.246
11 | HAIDVVARSSQGSSR | < -0.25
12 | PLCGDLDLGCRSSPRIYIFL | < -0.25
13 | IVKKYPEGRLHVLLIPGVTM | < -0.25
14 | YQRMNHLR | < -0.25
15 | RGPYDFSRSSAISRDETST | < -0.25
16 | FLPFF | < -0.25
17 | DLITSLYLETAV | < -0.25
18 | YSFLS | < -0.25
19 | LLGRYRHAKAERRAVWERI | < -0.25
20 | RSDESYIGLRVSFTPYDGYV | < -0.25
21 | SRHGGITQH | < -0.25
22 | VWSYRSFRREGSIGSFRRA | -0.191
23 | LPLKPGCRHTPGDFSGFTET | < -0.25
24 | PVSAEGTSARKLVRCG | < -0.25
25 | LRLTQFRDNSSMRGSVITVQ | < -0.25

An excerpt of these results, tab-delimited.
Row	Substance	growth estimate
3	YYLTECQELDPTLWIPKCGP	0.788
4	KLRCFG	< -0.25
5	QITKPTCQYNSSAHGWSAT	< -0.25
6	RDGSDQASIRPPQFVVPHQS	< -0.25
7	RDAGEAHGRATPAFTIC	< -0.25
8	SQTVVDIFVGQRSK	< -0.25
9	AGMKPGSSGNAV	< -0.25
10	FSLGNDTWSDLHWSFLT	-0.246
11	HAIDVVARSSQGSSR	< -0.25
12	PLCGDLDLGCRSSPRIYIFL	< -0.25
13	IVKKYPEGRLHVLLIPGVTM	< -0.25
14	YQRMNHLR	< -0.25
15	RGPYDFSRSSAISRDETST	< -0.25
16	FLPFF	< -0.25
17	DLITSLYLETAV	< -0.25
18	YSFLS	< -0.25
19	LLGRYRHAKAERRAVWERI	< -0.25
20	RSDESYIGLRVSFTPYDGYV	< -0.25
21	SRHGGITQH	< -0.25
22	VWSYRSFRREGSIGSFRRA	-0.191
23	LPLKPGCRHTPGDFSGFTET	< -0.25

The list goes on.

Row | Substance | growth estimate
26 | MATVLSGHPAA | < -0.25
27 | PTTVVATSRE | < -0.25
28 | GSGVGGSIRKNSYELLWTRW | < -0.25
29 | LHSSELLRGFRTPRGYRVVQ | < -0.25
30 | ILGRGARTVREGAGYTSDSK | < -0.25
31 | GAFRSQVLSKCGNSIRSICE | < -0.25
32 | VCSGKSDQLSTNMSYREARI | < -0.25
33 | YNLTGWALSQEGGYSASNAD | < -0.25
34 | EWPRVCGRSGGPRKAPRGH | < -0.25
35 | TLQHDVHQMRPGSSRAATFG | < -0.25
36 | PWPMTPRAERPLLTTCRANR | < -0.25
37 | YAVMLDCK | < -0.25
38 | HQMGSYAVSRSPGGSQTYLC | -0.235
39 | PITVQLVESEPLSGNTWAED | < -0.25
40 | YVCADIIGDRN | < -0.25
41 | VIMLSVHGD | < -0.25
42 | NGKPHPKHSWWRH | < -0.25
43 | GPISRIVRNQS | -0.241
44 | NRTETGHYTG | < -0.25
45 | IRKLSMGAAEFL | < -0.25
46 | PTEQSDIGPCISLYWTGVSA | < -0.25
47 | RRANRSDQVSFIIAACNFAK | < -0.25
48 | LNACKYRNTKRKVLSSNIAI | < -0.25
49 | FSPSGLYARTSYVIVTCDYA | < -0.25
50 | LCLEHDGPQ | < -0.25

A second format for part of the listing above:

| Row | Substance | growth estimate |
| --- | --- | --- |
| 15 | RGPYDFSRSSAISRDETST | < -0.25 |
| 16 | FLPFF | < -0.25 |

Remaining list, next part:

Row | Substance | growth estimate
51 | RYC | < -0.25
52 | LLLHFSGTGPI | < -0.25
53 | NVVEFSVYGYSTSFMSSRGY | < -0.25
54 | RVLLK | < -0.25
55 | SIGAQCVARKVSVFTYIWPQ | < -0.25
56 | VTGNNVSFLLQSCASEAERM | < -0.25
57 | TFTLVHLHKTFTTVLSVPGG | < -0.25
58 | EKGGQPRFMLCL | < -0.25
59 | SRKGMRWMSSWYHRRIAPWT | < -0.25
60 | TCSGSLKAGCINPPVNDASV | < -0.25
61 | QYSPNP | < -0.25
62 | SAYRGE | < -0.25
63 | TGLTPTRRKIPATKLVMKTV | < -0.25
64 | CGDIA | < -0.25
65 | KSIVSTKMGDGGPILSS | < -0.25
66 | PVVSGCSVPLFVRGHGTAKS | < -0.25
67 | QLNSLSSECHYIELAGPSMQ | < -0.25
68 | LVWGIYRGGFKLRVP | < -0.25
69 | YGVGGLPFSRPSLNTAAP | < -0.25
70 | DLVSRSMATV | < -0.25
71 | SPCNASFMSTRTRATSPYDT | < -0.25
72 | YGTKGLRAMCHFLFFRSSDG | < -0.25
73 | STEN | < -0.25
74 | LETSRDAESAGWVESLGCGT | < -0.25
75 | DDELGVMTLRDPLVGALAQS | < -0.25

Row | Substance | growth estimate
76 | FEM | < -0.25
77 | ADPIRSLCGLFFSAH | -0.229
78 | DYSPKPLA | < -0.25
79 | VCESAIMFERWCYDRSP | < -0.25
80 | RLRSAHLSAPRDLPRSELVC | < -0.25
81 | LYRLLFELQSPLPGVRCSQG | < -0.25
82 | YSIGLIDTLRFLKPTRQAA | < -0.25
83 | QVCSFPAYDKQLDEPSRRLR | < -0.25
84 | TMQARKRAPRLRLPGRFR | < -0.25
85 | VVLG | < -0.25
86 | TVTPAS | < -0.25
87 | RSPFE | < -0.25
88 | RKRRWQVRCFLRVPATSKVN | < -0.25
89 | RVPWTWQ | < -0.25
90 | ISDEHNGTVPN | < -0.25
91 | FAPCESPFPAVG | < -0.25
92 | TATRGPWSRLEESSGRPLGS | < -0.25
93 | DTTAAGSSITSSEIALIRHG | < -0.25
94 | DQYRAPKSHFLRDLSIGIRT | < -0.25
95 | DNALCSNDGRDATSGQISFR | < -0.25
96 | RGTRRTFNAWGPMWV | < -0.25
97 | ERDTLMVSRI | < -0.25
98 | DMKANHPDRKVDGQSGTALR | < -0.25
99 | VWVDRPQGNMVVPSP | < -0.25
100 | ALLVML | < -0.25
